# Test results taken from patent EP0306160A2, “Molluscicides” (BRITISH TECHNOLOGY GROUP LIMITED, priority 1987, dated 1989).
# At least one read-out could not be matched to a standard name with certainty.
# Test system: slugs
# Assay: Field comparison of baits (grass/clover), Table VII
# Format: in vivo
# Conditions: bait 10 % ai; for Total Slugs 'Dead' or 'Immobilised' (Cumulative) Total D+I: first 4 days of trial
# Text: In Table VII there is presented a comparison of the efficacy of present iron and aluminium chelates with metaldehyde and methiocarb under field conditions (grass/clover).
# [1] = Day 1, 2.5 % sucrose (PP pellets 6 % ai, Draza pellets 4 % ai)
# [2] = Day 2, 2.5 % sucrose (PP pellets 6 % ai, Draza pellets 4 % ai)
# [3] = Day 3, 2.5 % sucrose (PP pellets 6 % ai, Draza pellets 4 % ai)
# [4] = Day 4, 2.5 % sucrose (PP pellets 6 % ai, Draza pellets 4 % ai)
Compound,Total Slugs 'Dead' (Cumulative) D [1],Total Slugs 'Immobilised' (Cumulative) I [1],Total Slugs 'Dead' (Cumulative) D [2],Total Slugs 'Immobilised' (Cumulative) I [2],Total Slugs 'Dead' (Cumulative) D [3],Total Slugs 'Immobilised' (Cumulative) I [3],Total Slugs 'Dead' (Cumulative) D [4],Total Slugs 'Immobilised' (Cumulative) I [4],other results
"CC(=O)C=C(C)[O][Al]([O]C(C)=CC(C)=O)[O]C(C)=CC(C)=O [Example 19, Tris (2,4-pentanedionato) Al III]",210,13,294,54,378,86,435,98,"Total Slugs 'Dead' (Cumulative) D (Day 1, 5 % sucrose): 185; Total Slugs 'Immobilised' (Cumulative) I (Day 1, 5 % sucrose): 11; Total Slugs 'Dead' (Cumulative) D (Day 1, 10 % sucrose): 186; Total Slugs 'Immobilised' (Cumulative) I (Day 1, 10 % sucrose): 7; Total Slugs 'Dead' (Cumulative) D (Day 2, 5 % sucrose): 266; Total Slugs 'Immobilised' (Cumulative) I (Day 2, 5 % sucrose): 27; Total Slugs 'Dead' (Cumulative) D (Day 2, 10 % sucrose): 276; Total Slugs 'Immobilised' (Cumulative) I (Day 2, 10 % sucrose): 26; Total Slugs 'Dead' (Cumulative) D (Day 3, 5 % sucrose): 354; Total Slugs 'Immobilised' (Cumulative) I (Day 3, 5 % sucrose): 57; Total Slugs 'Dead' (Cumulative) D (Day 3, 10 % sucrose): 338; Total Slugs 'Immobilised' (Cumulative) I (Day 3, 10 % sucrose): 51; Total Slugs 'Dead' (Cumulative) D (Day 4, 5 % sucrose): 419; Total Slugs 'Immobilised' (Cumulative) I (Day 4, 5 % sucrose): 66; Total Slugs 'Dead' (Cumulative) D (Day 4, 10 % sucrose): 396; Total Slugs 'Immobilised' (Cumulative) I (Day 4, 10 % sucrose): 64; Total Slugs 'Dead' or 'Immobilised' (Cumulative) Total D+I (2.5 % sucrose (PP pellets 6 % ai, Draza pellets 4 % ai)): 533; Total Slugs 'Dead' or 'Immobilised' (Cumulative) Total D+I (5 % sucrose): 485; Total Slugs 'Dead' or 'Immobilised' (Cumulative) Total D+I (10 % sucrose): 460"
"CC1OC(C)OC(C)OC(C)O1 (stereo not shown) [Metaldehyde, reference compound]",126,33,139,142,241,161,271,190,
"CNC(=O)Oc1cc(C)c(SC)c(C)c1 [Methiocarb, reference compound]",9,244,10,371,11,499,16,541,
